Experimental data reported in the supplement of paper PMC9135407.
Where “and” joins values, the source holds several entries; their conditions need not be identical. Identical values can stand only once. Counter-ions that a name gives are not always drawn. ± gives the standard deviation of the averaged measurements. This is one part of the list. Part of the spread comes from offsets between plates or batches.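 Assay uses culture-activated primary human stellate myofibroblasts; lipid droplet recovery indicates inactivation. Measured: proportion of Hoechst-counted cells over a plate-specific Bodipy cutoff, duplicate wells, DMSO and nortriptyline as per-plate negative and positive controls. A hit scores, control-normalized, above the plate's top-tenth-percentile nortriptyline wells or ranks among its three best wells. Final well concentrations not reported.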

Tested on: primary human hepatic stellate cells (donor 1)
Experiment: percent Bodipy-positive cells; higher = more lipid droplet accumulation
Conditions: 48 h
Experimental: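 Primary lipid accumulation screen in primary human hepatic stellate cell myofibroblasts (donor 1, passage 8) in 384-well plates. 100 nL of library compound was pin-transferred into 30 µL medium in duplicate, and cells were treated for 48 h. The 'Scaled' score combines distance from plate baseline, toxicity and reproducibility penalties, and is normalised to nortriptyline (positive) and DMSO (negative) controls on each plate. A hit is defined as scaled >0.85 or among the top 3 wells per plate.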

[1] = library stock concentration: 10 mM
[2] = library stock concentration: 3.33 mM
[3] = library stock concentration: 1 mM

SMILES: CCCCCCCCCCCCCCCCCCCCCCO [Docosanol]
- percent Bodipy-positive cells (library stock concentration: 6.1 mM): 9.34 ± 3.4%

SMILES: COc1ccc(O)cc1
- percent Bodipy-positive cells [1]: 21.8 ± 8.9%

SMILES: COc1ccc(O)cc1 [Mequinol]
- percent Bodipy-positive cells [2]: 13.2 ± 0.16%
- percent Bodipy-positive cells [1]: 38.1 ± 16%

SMILES: CC(=O)NC(Cc1ccccc1)C(=O)O (centres undefined)
- percent Bodipy-positive cells [1]: 23.7 ± 4.3%

SMILES: CC(C)C[C@@H](C(=O)N[C@H](C(=O)OC1CCCC1)c1ccccc1)[C@H](O)C(=O)NO
- percent Bodipy-positive cells [1]: 10.8 ± 3.3%

SMILES: Cc1c(-c2ccccc2)oc2c(C(=O)OCCN3CCCCC3)cccc2c1=O [Flavoxate HCl]
- percent Bodipy-positive cells [2]: 9.38 ± 0.53%
- percent Bodipy-positive cells [1]: 39.3 ± 8.2%

SMILES: Cc1c(-c2ccccc2)oc2c(C(=O)OCCN3CCCCC3)cccc2c1=O [Flavoxate hydrochloride]
- percent Bodipy-positive cells: 51.8 ± 33%

SMILES: CCCCCC(O)/C=C/C=O (centres undefined) [4-hydroxy Nonenal]
- percent Bodipy-positive cells [3]: 12.8 ± 3%

SMILES: CC12CCC(CC1=O)C2(C)C (centres undefined) [Camphor (1r)]
- percent Bodipy-positive cells (library stock concentration: 13.1 mM): 2.92 ± 1.2%

SMILES: C[C@@H]1NC(=O)[C@@H](N)CNC(=O)[C@H](C2CCNC(=N)N2)NC(=O)/C(=C/NC(N)=O)NC(=O)[C@H](CNC(=O)CC(N)CCCN)NC1=O.N=C1NCC[C@H]([C@@H]2NC(=O)/C(=C/NC(N)=O)NC(=O)[C@H](CNC(=O)C[C@@H](N)CCCN)NC(=O)[C@H](CO)NC(=O)[C@@H](N)CNC2=O)N1 [Capreomycin sulfate]
- percent Bodipy-positive cells (library stock concentration: 2.6 mM): 2.56 ± 0.9%
- percent Bodipy-positive cells [1]: 10.6 ± 3%

SMILES: CN[C@@H]1[C@@H](O[C@H]2O[C@H](CO)[C@@H](N)[C@H](O)[C@H]2O)OC2C[C@@H](N)[C@@H](O[C@H]3[C@H](O)[C@@H](O)[C@H](N)C[C@@H]3N)OC2[C@@H]1O (some centres undefined) [Apramycin]
- percent Bodipy-positive cells: 12.1 ± 3%
- percent Bodipy-positive cells [1]: 26.7 ± 10%

SMILES: CC1(C)O[C@H]2CC(=O)OC[C@]23[C@H]2CC[C@@]4(C)[C@H](c5ccoc5)OC(=O)[C@H]5O[C@]54[C@]2(C)C(=O)C[C@@H]13 [Limonin]
- percent Bodipy-positive cells [2]: 23.9 ± 3%
- percent Bodipy-positive cells [1]: 18.1 ± 3.7%

SMILES: O=C(O)CCC/C=C\C[C@@H]1[C@@H](/C=C/[C@@H](O)CCc2cccc(C(F)(F)F)c2)[C@H](O)C[C@@H]1O [17-trifluoromethylphenyl trinor Prostaglandin F2.alpha.]
- percent Bodipy-positive cells [3]: 15.2 ± 4.6%

SMILES: CCN(CC)CCOC(=O)c1ccc(N)cc1Cl [Chloroprocaine HCl]
- percent Bodipy-positive cells [2]: 9.42 ± 0.52%
- percent Bodipy-positive cells [1]: 33.62 ± 0.28%

SMILES: NC(=O)c1cccc(-c2cc(Nc3ccc(OC(F)(F)F)cc3)ncn2)c1
- percent Bodipy-positive cells (library stock concentration: 80 uM): 18.8 ± 10%
- percent Bodipy-positive cells (library stock concentration: 400 uM): 13 ± 5.7%
- percent Bodipy-positive cells (library stock concentration: 2 mM): 16.9 ± 4.2%
- percent Bodipy-positive cells [2]: 14 ± 8.1%
- percent Bodipy-positive cells [1]: 29.3% and 25.7%

SMILES: OC[C@H]1NC[C@H](O)[C@@H](O)[C@@H]1O [1-Deoxynojirimycin hydrochloride]
- percent Bodipy-positive cells [1]: 41.1 ± 4.8%

SMILES: C=C1/C(=C\C=C2/CCC[C@]3(C)[C@@H]([C@H](C)CCCC(C)C)CC[C@@H]23)C[C@@H](O)C[C@@H]1O [Alfacalcidol]
- percent Bodipy-positive cells [2]: 10.8 ± 1.2%
- percent Bodipy-positive cells (library stock concentration: 5 mM): 5.45 ± 1.4%

SMILES: CCCCCC(=O)CC[C@@H]1[C@@H](C/C=C\CCCC(=O)O)[C@@H](O)C[C@H]1O [13,14-dihydro-15-keto Prostaglandin F2.alpha.]
- percent Bodipy-positive cells [3]: 16.4 ± 8.7%

SMILES: CCN(CC)CCOC(=O)c1cc(Cl)c(N)cc1OC [SDZ-205,557 hydrochloride]
- percent Bodipy-positive cells [1]: 28.7 ± 3.9%

SMILES: CCN(CC)CCOC(=O)c1cc(Cl)c(N)cc1OC [SDZ 205-557 hydrochloride]
- percent Bodipy-positive cells [1]: 6.68 ± 0.86%

SMILES: NC/C=C/C(=O)O [(E)-4-amino-2-butenoic acid]
- percent Bodipy-positive cells [1]: 23.3 ± 13%

SMILES: CCCCC[C@H](O)/C=C/[C@H]1C(=O)C[C@H](O)[C@@H]1CCCCCCC(=O)O [Prostaglandin D1]
- percent Bodipy-positive cells [3]: 10.7 ± 0.46%

SMILES: CCCCCCCCCCCSCC(=O)O [3-Thiatetradecanoic Acid]
- percent Bodipy-positive cells [3]: 7.79 ± 0.48%

SMILES: Cc1ccc2c(c1)c1c3n2CCNC3CCC1 (centres undefined) [Pirlindole mesylate]
- percent Bodipy-positive cells: 45.5 ± 2.9%

SMILES: C[n+]1c2cc(N)ccc2cc2ccc(N)cc21 [Acriflavinium hydrochloride]
- percent Bodipy-positive cells (library stock concentration: 7.7 mM): 0%
- percent Bodipy-positive cells [1]: 4.78 ± 5.7%

SMILES: O=C(N[C@H](CO)[C@H](O)c1ccc([N+](=O)[O-])cc1)C(Cl)Cl [Chloramphenicol]
- percent Bodipy-positive cells: 23.4 ± 1.2%
- percent Bodipy-positive cells [2]: 9.3 ± 3.9%
- percent Bodipy-positive cells (library stock concentration: 6.2 mM): 6.94% and 3.4%
- percent Bodipy-positive cells [1]: 8.37% and 9.35% and 27.9%

SMILES: O=C(O)CCNC(=O)c1ccccc1 [Betamipron]
- percent Bodipy-positive cells [2]: 10.3 ± 2.1%
- percent Bodipy-positive cells [1]: 29% and 33.3%

SMILES: CCC[C@@H]1C[C@@H](C(=O)N[C@@H]([C@H]2O[C@H](SC)[C@H](O)[C@@H](O)[C@H]2O)[C@H](C)Cl)N(C)C1 [Clindamycin HCl]
- percent Bodipy-positive cells [2]: 3.68 ± 2.3%
- percent Bodipy-positive cells (library stock concentration: 4.7 mM): 7.34 ± 1.7%
- percent Bodipy-positive cells [1]: 13.7 ± 1.1%

SMILES: CCC[C@@H]1C[C@@H](C(=O)N[C@@H]([C@H]2O[C@H](SC)[C@H](O)[C@@H](O)[C@H]2O)[C@H](C)Cl)N(C)C1 [Clindamycin]
- percent Bodipy-positive cells [2]: 8.86 ± 1.6%
- percent Bodipy-positive cells [1]: 17.9 ± 10%

SMILES: CCC[C@@H]1C[C@@H](C(=O)N[C@@H]([C@H]2O[C@H](SC)[C@H](O)[C@@H](O)[C@H]2O)[C@H](C)Cl)N(C)C1 [Clindamycin hydrochloride]
- percent Bodipy-positive cells: 52.7 ± 31%

SMILES: COc1ccc(/C=C/c2ccccc2F)cc1
- percent Bodipy-positive cells [3]: 14 ± 0.68%

SMILES: CO[C@H]1/C=C\C=C(/C)C(=O)NC2=CC(=O)C(NCCN(C)C)=C(C[C@@H](C)C[C@H](OC)[C@H](O)[C@@H](C)/C=C(\C)[C@@H]1OC(N)=O)C2=O [17-DMAG (Alvespimycin) HCl]
- percent Bodipy-positive cells [2]: 50.4 ± 9.2%

SMILES: NCCCNCCCCN(CCCN)/[N+]([O-])=N/O [Spermine NONOate]
- percent Bodipy-positive cells [3]: 6.6 ± 0.25%

SMILES: Cl.N/C(=N\Cc1ccccc1)NC(=O)c1nc(Cl)c(N)nc1N
- percent Bodipy-positive cells (library stock concentration: 14 mM): 97.8 ± 1.3%

SMILES: COc1ccc(C2=N[C@@H](c3ccc(Cl)cc3)[C@H](c3ccc(Cl)cc3)N2C(=O)N2CCNC(=O)C2)c(OC(C)C)c1 [Nutlin-3a]
- percent Bodipy-positive cells [1]: 93.1 ± 2%
